PubChem BioAssay AID1259254, NCATS | 2017

Screen: 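Gene knock-downs that lead to re-replication, shown by excess G2 DNA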 (primary screen)
System: human HCT116 colorectal cancer cells
Reagent: single siRNA against human genes
Time to read-out: 3 days
Measured: 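Imaged Hoechst DNA stain sorts each cell into a cycle phase by DNA amount; per plate, G2 fraction set to 0% for non-targeting and 100% for GMNN siRNA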
Scale: G2 robust z-score: higher = more G2 cells, more excess DNA replication
Hit rule: 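An siRNA counts as active if its G2 robust z-score lies at least 5 MADs above the screen median; here such calls match roughly 38% of GMNN control or more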
The whole screen tested about 59,000 reagents; below is a part drawn at random. Over the whole deposit, about 1,550 (2.6%) were called active. 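G2 share is only a proxy for re-replication; each gene was hit by three separate siRNAs, and active genes were retested.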 The numbers tell different reagents against one gene apart. Not all columns of the deposit are shown. No sequences are given here. Not given: the amount of reagent.

G2 robust z-score, by gene knocked down and reagent
ENTPD3: #1 -0.737 inactive; #2 0.233 inactive; #3 -0.179 inactive
IL6R: #1 0.171 inactive; #2 -0.887 inactive; #3 1.76 inactive
DHX30: #1 -1.07 inactive; #2 -0.131 inactive; #3 -0.71 inactive
RARRES2: #1 -0.439 inactive; #2 -1.49 inactive; #3 0.983 inactive
BCL9L: #1 0.167 inactive; #2 -0.531 inactive; #3 0.0247 inactive
KCNH2: #1 -0.588 inactive; #2 0.0909 inactive; #3 0.12 inactive
AWAT1: #1 -0.367 inactive; #2 0.286 inactive; #3 1.56 inactive
MPIG6B: #1 -0.0904 inactive; #2 0.789 inactive; #3 0.834 inactive
GPR4: #1 0.887 inactive; #2 0.38 inactive; #3 0.069 inactive
NDUFA6: #1 -0.342 inactive; #2 -0.478 inactive; #3 -0.23 inactive
SPTB: #1 -1.3 inactive; #2 0.357 inactive; #3 -1.19 inactive
ZNF354C: #1 -0.316 inactive; #2 -1.05 inactive; #3 0.234 inactive
PEX16: #1 8.73 active; #2 0.342 inactive; #3 -1.05 inactive
TTYH3: #1 0.534 inactive; #2 0.402 inactive; #3 0.329 inactive
IFT52: #1 0.0393 inactive; #2 -0.0432 inactive; #3 -0.841 inactive
SH3GL2: #1 -0.263 inactive; #2 0.458 inactive; #3 0.013 inactive
ZNF296: #1 -1.2 inactive; #2 -0.676 inactive; #3 -0.861 inactive
HSH2D: #1 2.3 inactive; #2 -0.000646 inactive; #3 -0.195 inactive
LAP3: #1 0.377 inactive; #2 0.82 inactive; #3 -0.929 inactive
PGBD3: #1 1.66 inactive; #2 -0.197 inactive; #3 -0.426 inactive
ALCAM: #1 -0.0599 inactive; #2 -0.774 inactive; #3 2.24 inactive
PIERCE1: #1 -0.605 inactive; #2 -1.16 inactive; #3 0.481 inactive
SLC17A6: #1 2.72 inactive; #2 0.0879 inactive; #3 0.461 inactive

Ordered by “G2 robust z-score” (highest first): 8 of the entries above.
gene knocked down	reagent no.	G2 robust z-score	Call
GPR4	1	0.887	inactive
MPIG6B	3	0.834	inactive
MPIG6B	2	0.789	inactive
GPR4	2	0.38	inactive
GPR4	3	0.069	inactive
NDUFA6	3	-0.23	inactive
NDUFA6	1	-0.342	inactive
NDUFA6	2	-0.478	inactive
